# The list shows a part of the results. The list holds hits alone, and they repeat only in part.
# Chains of the proteins cited; added tags and fusions are not shown.
# DEFA3, P59666, UniProt P59666, whole entry: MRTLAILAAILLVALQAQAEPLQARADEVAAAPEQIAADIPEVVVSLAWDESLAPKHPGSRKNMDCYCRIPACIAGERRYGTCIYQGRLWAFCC
# GPN1, Q9HCN4, UniProt Q9HCN4, whole entry: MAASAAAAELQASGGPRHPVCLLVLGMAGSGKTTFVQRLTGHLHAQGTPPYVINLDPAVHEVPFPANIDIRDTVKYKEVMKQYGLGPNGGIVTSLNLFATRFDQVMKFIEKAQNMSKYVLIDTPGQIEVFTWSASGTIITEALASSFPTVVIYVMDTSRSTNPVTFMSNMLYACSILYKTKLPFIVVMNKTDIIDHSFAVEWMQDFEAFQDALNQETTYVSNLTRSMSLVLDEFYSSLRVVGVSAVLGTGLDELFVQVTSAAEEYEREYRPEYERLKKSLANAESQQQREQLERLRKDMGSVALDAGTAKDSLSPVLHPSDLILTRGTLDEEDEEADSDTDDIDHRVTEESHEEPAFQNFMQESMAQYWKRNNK
# MYH9, P35579, UniProt P35579, whole entry: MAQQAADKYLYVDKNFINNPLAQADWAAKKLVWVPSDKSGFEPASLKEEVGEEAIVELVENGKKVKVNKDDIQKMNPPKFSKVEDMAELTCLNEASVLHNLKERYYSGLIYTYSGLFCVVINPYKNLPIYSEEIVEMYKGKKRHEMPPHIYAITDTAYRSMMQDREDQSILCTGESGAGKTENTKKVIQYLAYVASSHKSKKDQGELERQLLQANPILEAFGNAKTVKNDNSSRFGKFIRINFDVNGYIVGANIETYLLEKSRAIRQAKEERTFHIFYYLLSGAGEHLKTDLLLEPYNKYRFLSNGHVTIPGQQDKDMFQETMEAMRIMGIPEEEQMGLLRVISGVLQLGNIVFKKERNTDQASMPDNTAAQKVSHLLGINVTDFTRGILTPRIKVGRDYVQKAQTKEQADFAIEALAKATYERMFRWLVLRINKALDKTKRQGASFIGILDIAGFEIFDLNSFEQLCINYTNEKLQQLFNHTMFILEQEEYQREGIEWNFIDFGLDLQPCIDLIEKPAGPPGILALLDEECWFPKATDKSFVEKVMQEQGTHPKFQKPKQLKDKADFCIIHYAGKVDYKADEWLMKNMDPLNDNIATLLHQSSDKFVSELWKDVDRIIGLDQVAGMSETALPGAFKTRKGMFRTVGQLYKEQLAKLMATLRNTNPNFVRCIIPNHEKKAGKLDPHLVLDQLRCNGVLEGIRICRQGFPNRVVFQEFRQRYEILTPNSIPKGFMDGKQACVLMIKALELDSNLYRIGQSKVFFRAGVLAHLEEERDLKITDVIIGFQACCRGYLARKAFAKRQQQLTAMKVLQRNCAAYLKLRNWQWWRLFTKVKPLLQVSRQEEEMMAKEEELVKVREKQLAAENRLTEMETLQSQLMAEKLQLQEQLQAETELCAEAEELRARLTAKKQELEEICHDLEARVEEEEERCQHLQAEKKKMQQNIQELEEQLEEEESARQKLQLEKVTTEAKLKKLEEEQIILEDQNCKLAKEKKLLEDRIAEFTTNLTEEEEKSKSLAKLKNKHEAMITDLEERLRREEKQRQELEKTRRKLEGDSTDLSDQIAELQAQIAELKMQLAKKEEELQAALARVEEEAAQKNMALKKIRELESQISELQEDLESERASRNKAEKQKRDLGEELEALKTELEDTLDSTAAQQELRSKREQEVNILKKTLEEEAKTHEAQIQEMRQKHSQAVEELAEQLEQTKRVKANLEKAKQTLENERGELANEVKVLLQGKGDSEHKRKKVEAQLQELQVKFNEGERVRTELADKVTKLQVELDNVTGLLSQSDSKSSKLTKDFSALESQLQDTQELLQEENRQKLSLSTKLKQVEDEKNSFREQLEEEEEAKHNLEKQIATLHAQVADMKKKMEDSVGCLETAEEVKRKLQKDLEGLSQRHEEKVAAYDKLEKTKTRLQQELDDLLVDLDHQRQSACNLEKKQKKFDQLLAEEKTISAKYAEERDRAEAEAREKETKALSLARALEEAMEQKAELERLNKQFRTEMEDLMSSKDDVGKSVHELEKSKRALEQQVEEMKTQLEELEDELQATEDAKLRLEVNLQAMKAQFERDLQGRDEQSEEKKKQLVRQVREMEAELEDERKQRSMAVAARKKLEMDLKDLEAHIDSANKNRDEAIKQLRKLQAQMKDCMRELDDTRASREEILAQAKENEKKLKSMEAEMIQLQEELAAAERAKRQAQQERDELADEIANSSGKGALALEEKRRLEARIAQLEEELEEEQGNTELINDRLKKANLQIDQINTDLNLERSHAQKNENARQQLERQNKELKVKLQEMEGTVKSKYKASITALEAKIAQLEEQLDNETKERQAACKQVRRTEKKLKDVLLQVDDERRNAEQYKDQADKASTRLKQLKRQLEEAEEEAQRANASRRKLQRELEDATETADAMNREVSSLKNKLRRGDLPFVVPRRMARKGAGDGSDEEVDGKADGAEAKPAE
# RBBP7, Q16576, UniProt Q16576, whole entry: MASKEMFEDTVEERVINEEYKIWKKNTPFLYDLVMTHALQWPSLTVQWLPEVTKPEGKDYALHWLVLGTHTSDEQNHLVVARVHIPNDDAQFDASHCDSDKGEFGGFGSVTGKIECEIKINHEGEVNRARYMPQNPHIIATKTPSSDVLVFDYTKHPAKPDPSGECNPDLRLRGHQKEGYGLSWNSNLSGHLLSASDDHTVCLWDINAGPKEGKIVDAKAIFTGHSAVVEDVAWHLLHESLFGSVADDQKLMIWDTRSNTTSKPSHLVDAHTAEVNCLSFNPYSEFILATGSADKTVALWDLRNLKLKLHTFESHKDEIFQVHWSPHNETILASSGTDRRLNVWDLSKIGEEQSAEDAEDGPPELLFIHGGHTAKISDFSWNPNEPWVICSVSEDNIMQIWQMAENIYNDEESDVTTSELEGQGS
# TAF8, Q7Z7C8, UniProt Q7Z7C8, whole entry: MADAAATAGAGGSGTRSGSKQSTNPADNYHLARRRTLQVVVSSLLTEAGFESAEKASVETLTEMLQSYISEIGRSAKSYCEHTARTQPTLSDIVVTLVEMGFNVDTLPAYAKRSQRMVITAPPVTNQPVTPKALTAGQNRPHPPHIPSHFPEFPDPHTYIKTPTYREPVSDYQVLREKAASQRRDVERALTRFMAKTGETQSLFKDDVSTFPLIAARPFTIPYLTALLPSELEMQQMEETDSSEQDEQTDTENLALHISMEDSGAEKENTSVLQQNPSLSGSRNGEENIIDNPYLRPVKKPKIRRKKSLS
# EPB41L2, O43491, UniProt O43491, whole entry: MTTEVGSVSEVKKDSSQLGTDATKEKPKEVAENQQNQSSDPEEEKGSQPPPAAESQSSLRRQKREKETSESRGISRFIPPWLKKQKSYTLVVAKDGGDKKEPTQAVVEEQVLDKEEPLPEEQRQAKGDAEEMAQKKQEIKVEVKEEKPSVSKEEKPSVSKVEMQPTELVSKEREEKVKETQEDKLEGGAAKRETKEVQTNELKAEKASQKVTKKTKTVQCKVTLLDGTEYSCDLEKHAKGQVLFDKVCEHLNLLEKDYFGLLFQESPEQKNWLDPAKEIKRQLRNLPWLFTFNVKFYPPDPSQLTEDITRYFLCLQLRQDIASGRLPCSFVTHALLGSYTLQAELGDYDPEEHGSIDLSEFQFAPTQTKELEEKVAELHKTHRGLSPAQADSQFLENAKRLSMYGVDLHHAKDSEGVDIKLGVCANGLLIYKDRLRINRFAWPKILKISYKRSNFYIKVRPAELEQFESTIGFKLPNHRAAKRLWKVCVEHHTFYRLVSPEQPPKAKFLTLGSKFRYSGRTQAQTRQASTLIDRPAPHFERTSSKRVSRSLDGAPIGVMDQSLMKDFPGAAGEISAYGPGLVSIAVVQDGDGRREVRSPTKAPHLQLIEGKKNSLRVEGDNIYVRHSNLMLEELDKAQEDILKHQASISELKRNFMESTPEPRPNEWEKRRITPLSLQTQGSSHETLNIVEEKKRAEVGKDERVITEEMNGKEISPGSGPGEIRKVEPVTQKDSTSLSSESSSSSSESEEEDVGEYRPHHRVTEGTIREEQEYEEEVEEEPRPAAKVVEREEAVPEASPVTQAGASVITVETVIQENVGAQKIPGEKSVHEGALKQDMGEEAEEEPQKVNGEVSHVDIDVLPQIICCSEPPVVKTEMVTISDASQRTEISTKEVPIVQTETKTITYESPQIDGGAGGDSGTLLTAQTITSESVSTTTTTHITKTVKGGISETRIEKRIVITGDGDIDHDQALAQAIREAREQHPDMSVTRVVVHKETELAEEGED
# NDUFS7, O75251, UniProt O75251, whole entry: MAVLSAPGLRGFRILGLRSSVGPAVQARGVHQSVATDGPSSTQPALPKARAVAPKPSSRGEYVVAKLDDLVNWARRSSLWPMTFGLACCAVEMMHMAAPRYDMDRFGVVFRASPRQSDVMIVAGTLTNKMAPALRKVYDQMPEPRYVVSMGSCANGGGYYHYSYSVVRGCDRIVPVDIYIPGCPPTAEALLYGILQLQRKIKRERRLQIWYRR
# NUP153, P49790, UniProt P49790, whole entry: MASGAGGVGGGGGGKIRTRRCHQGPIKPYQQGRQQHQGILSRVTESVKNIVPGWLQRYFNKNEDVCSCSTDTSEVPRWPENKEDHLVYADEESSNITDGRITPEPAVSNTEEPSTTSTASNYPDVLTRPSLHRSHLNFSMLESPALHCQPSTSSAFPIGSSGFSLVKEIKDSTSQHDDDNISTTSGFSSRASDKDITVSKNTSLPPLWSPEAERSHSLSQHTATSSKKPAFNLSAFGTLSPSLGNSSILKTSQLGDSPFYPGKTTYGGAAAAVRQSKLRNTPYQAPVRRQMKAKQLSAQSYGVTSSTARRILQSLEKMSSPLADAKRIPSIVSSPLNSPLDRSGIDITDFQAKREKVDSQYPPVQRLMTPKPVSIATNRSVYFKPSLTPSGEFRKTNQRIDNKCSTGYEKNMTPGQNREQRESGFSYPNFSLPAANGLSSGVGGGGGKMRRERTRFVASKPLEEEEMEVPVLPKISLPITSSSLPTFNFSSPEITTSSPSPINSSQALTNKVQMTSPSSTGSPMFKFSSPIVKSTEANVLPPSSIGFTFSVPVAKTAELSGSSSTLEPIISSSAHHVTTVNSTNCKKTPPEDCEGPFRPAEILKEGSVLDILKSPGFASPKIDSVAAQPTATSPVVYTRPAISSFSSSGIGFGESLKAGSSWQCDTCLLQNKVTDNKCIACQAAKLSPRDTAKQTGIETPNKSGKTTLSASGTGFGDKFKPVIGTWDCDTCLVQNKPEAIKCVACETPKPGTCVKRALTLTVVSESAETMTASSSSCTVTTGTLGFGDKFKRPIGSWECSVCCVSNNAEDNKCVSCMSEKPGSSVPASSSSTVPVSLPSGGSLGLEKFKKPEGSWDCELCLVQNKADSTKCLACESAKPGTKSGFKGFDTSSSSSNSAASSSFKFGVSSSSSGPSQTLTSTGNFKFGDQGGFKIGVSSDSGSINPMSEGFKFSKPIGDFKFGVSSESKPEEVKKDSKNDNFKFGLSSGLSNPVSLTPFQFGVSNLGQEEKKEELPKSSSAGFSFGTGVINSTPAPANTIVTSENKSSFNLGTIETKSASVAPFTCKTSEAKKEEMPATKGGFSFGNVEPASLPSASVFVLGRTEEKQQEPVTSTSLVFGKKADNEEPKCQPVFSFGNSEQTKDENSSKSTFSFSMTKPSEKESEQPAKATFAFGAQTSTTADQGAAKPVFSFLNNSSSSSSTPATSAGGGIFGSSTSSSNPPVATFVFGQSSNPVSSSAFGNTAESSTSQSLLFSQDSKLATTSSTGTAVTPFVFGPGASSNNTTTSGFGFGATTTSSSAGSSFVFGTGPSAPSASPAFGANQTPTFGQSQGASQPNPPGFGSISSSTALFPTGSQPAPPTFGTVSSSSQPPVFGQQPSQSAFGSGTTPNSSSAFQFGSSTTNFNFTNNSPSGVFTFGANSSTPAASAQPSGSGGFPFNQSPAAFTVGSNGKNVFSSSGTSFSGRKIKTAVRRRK
# B1: JHDM1D-AS1 (peptide)
# chain: PLVAGGLSPRGIHHC
# B2: RP11-464C19.3 (peptide)
# chain: RSQDTFGGPGRRVCW
# Tests used:
# Assay in all cases: PRISMA enrichment of interactor (LFQ) in peptide spot vs all other peptide spots (log2 fold change); higher = stronger / more specific binding of the interactor to the peptide
# CDC5L, Q99459 = biological target: CDC5L, Q99459
# Method: (§1)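 PRISMA: 15-aa overlapping tiles (offset 8 aa) of 60 microproteins, plus SOS1/GLUT1 control peptides, were spot-synthesized on cellulose membranes in triplicate. Membranes were incubated with benzonase-treated HEK293T lysate, and bound proteins were identified by LC-MS/MS with LFQ. Enrichment is the log2 fold change of each protein in one spot versus all other spots. Only interactors passing the significance cutoff are listed.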
# COQ8A, Q8NI60 = biological target: COQ8A, Q8NI60
# Method: as §1
# CSNK2A1, P68400 = biological target: CSNK2A1, P68400
# Method: as §1
# DEFA3, P59666 = biological target: DEFA3, P59666
# Method: as §1
# DNAAF5, Q86Y56 = biological target: DNAAF5, Q86Y56
# Method: as §1
# EARS2, Q5JPH6 = biological target: EARS2, Q5JPH6
# Method: as §1
# GATA6, Q92908 = biological target: GATA6, Q92908
# Method: as §1
# GPN1, Q9HCN4 = biological target: GPN1, Q9HCN4
# Method: as §1
# HMGA1, P17096 = biological target: HMGA1, P17096
# Method: as §1
# KHSRP, Q92945 = biological target: KHSRP, Q92945
# Method: as §1
# MLEC, Q14165 = biological target: MLEC, Q14165
# Method: as §1
# MRPL39, Q9NYK5 = biological target: MRPL39, Q9NYK5
# Method: as §1
# MRPS5, P82675 = biological target: MRPS5, P82675
# Method: as §1
# MYH9, P35579 = biological target: MYH9, P35579
# Method: as §1
# NUP188, Q5SRE5 = biological target: NUP188, Q5SRE5
# Method: as §1
# PDF, Q9HBH1 = biological target: PDF, Q9HBH1
# Method: as §1
# PRPF38B, Q5VTL8 = biological target: PRPF38B, Q5VTL8
# Method: as §1
# RBBP7, Q16576 = biological target: RBBP7, Q16576
# Method: as §1
# RRP36, Q96EU6 = biological target: RRP36, Q96EU6
# Method: as §1
# SLC25A13, Q9UJS0 = biological target: SLC25A13, Q9UJS0
# Method: as §1
# SRP54, P61011 = biological target: SRP54, P61011
# Method: as §1
# TAF8, Q7Z7C8 = biological target: TAF8, Q7Z7C8
# Method: as §1
# TMEM214, Q6NUQ4 = biological target: TMEM214, Q6NUQ4
# Method: as §1
# TMEM263, Q8WUH6 = biological target: TMEM263, Q8WUH6
# Method: as §1
# TRMT5, Q32P41 = biological target: TRMT5, Q32P41
# Method: as §1
# URB1, O60287 = biological target: URB1, O60287
# Method: as §1
# CDIPT, O14735 = biological target: CDIPT, O14735
# Method: as §1
# CNOT3, O75175 = biological target: CNOT3, O75175
# Method: as §1
# EIF4H, Q15056 = biological target: EIF4H, Q15056
# Method: as §1
# ENAH, Q8N8S7 = biological target: ENAH, Q8N8S7
# Method: as §1
# EPB41L2, O43491 = biological target: EPB41L2, O43491
# Method: as §1
# ESYT2, A0FGR8 = biological target: ESYT2, A0FGR8
# Method: as §1
# FAM83D, Q9H4H8 = biological target: FAM83D, Q9H4H8
# Method: as §1
# GPATCH8, Q9UKJ3 = biological target: GPATCH8, Q9UKJ3
# Method: as §1
# KIF20B, Q96Q89 = biological target: KIF20B, Q96Q89
# Method: as §1
# KRI1, Q8N9T8 = biological target: KRI1, Q8N9T8
# Method: as §1
# MCM6, Q14566 = biological target: MCM6, Q14566
# Method: as §1
# NDUFS7, O75251 = biological target: NDUFS7, O75251
# Method: as §1
# NUP153, P49790 = biological target: NUP153, P49790
# Method: as §1
# PBK, Q96KB5 = biological target: PBK, Q96KB5
# Method: as §1
# PRKAA2, P54646 = biological target: PRKAA2, P54646
# Method: as §1
# PRRC2B, Q5JSZ5 = biological target: PRRC2B, Q5JSZ5
# Method: as §1
# PRRC2C, Q9Y520 = biological target: PRRC2C, Q9Y520
# Method: as §1
# RAB35, Q15286 = biological target: RAB35, Q15286
# Method: as §1
# SLC25A33, Q9BSK2 = biological target: SLC25A33, Q9BSK2
# Method: as §1
# SRFBP1, Q8NEF9 = biological target: SRFBP1, Q8NEF9
# Method: as §1
# UBAC2, Q8NBM4 = biological target: UBAC2, Q8NBM4
# Method: as §1
binder,measurement,setting,value
B1,PRISMA enrichment of interactor (log2),"CDC5L, Q99459",5.74
same,PRISMA enrichment of interactor (log2),"COQ8A, Q8NI60",4.74
same,PRISMA enrichment of interactor (log2),"CSNK2A1, P68400",5.15
same,PRISMA enrichment of interactor (log2),"DEFA3, P59666",5.26
same,PRISMA enrichment of interactor (log2),"DNAAF5, Q86Y56",5.03
same,PRISMA enrichment of interactor (log2),"EARS2, Q5JPH6",11.5
same,PRISMA enrichment of interactor (log2),"GATA6, Q92908",4.34
same,PRISMA enrichment of interactor (log2),"GPN1, Q9HCN4",5.13
same,PRISMA enrichment of interactor (log2),"HMGA1, P17096",6.23
same,PRISMA enrichment of interactor (log2),"KHSRP, Q92945",5.23
same,PRISMA enrichment of interactor (log2),"MLEC, Q14165",4.15
same,PRISMA enrichment of interactor (log2),"MRPL39, Q9NYK5",5.1
same,PRISMA enrichment of interactor (log2),"MRPS5, P82675",9.59
same,PRISMA enrichment of interactor (log2),"MYH9, P35579",4.58
same,PRISMA enrichment of interactor (log2),"NUP188, Q5SRE5",4.28
same,PRISMA enrichment of interactor (log2),"PDF, Q9HBH1",4.91
same,PRISMA enrichment of interactor (log2),"PRPF38B, Q5VTL8",4.31
same,PRISMA enrichment of interactor (log2),"RBBP7, Q16576",5.64
same,PRISMA enrichment of interactor (log2),"RRP36, Q96EU6",4.2
same,PRISMA enrichment of interactor (log2),"SLC25A13, Q9UJS0",5.1
same,PRISMA enrichment of interactor (log2),"SRP54, P61011",4.57
same,PRISMA enrichment of interactor (log2),"TAF8, Q7Z7C8",4.13
same,PRISMA enrichment of interactor (log2),"TMEM214, Q6NUQ4",5.79
same,PRISMA enrichment of interactor (log2),"TMEM263, Q8WUH6",4.9
same,PRISMA enrichment of interactor (log2),"TRMT5, Q32P41",4.53
same,PRISMA enrichment of interactor (log2),"URB1, O60287",5.83
B2,PRISMA enrichment of interactor (log2),"CDIPT, O14735",4.06
same,PRISMA enrichment of interactor (log2),"CNOT3, O75175",5.47
same,PRISMA enrichment of interactor (log2),"EIF4H, Q15056",4.54
same,PRISMA enrichment of interactor (log2),"ENAH, Q8N8S7",6.34
same,PRISMA enrichment of interactor (log2),"EPB41L2, O43491",8.82
same,PRISMA enrichment of interactor (log2),"ESYT2, A0FGR8",4.63
same,PRISMA enrichment of interactor (log2),"FAM83D, Q9H4H8",5.8
same,PRISMA enrichment of interactor (log2),"GPATCH8, Q9UKJ3",4.71
same,PRISMA enrichment of interactor (log2),"KIF20B, Q96Q89",3.95
same,PRISMA enrichment of interactor (log2),"KRI1, Q8N9T8",5.58
same,PRISMA enrichment of interactor (log2),"MCM6, Q14566",4.78
same,PRISMA enrichment of interactor (log2),"NDUFS7, O75251",6.51
same,PRISMA enrichment of interactor (log2),"NUP153, P49790",5.42
same,PRISMA enrichment of interactor (log2),"PBK, Q96KB5",4.9
same,PRISMA enrichment of interactor (log2),"PRKAA2, P54646",4.39
same,PRISMA enrichment of interactor (log2),"PRRC2B, Q5JSZ5",5.91
same,PRISMA enrichment of interactor (log2),"PRRC2C, Q9Y520",5.25
same,PRISMA enrichment of interactor (log2),"RAB35, Q15286",5.25
same,PRISMA enrichment of interactor (log2),"SLC25A33, Q9BSK2",7.19
same,PRISMA enrichment of interactor (log2),"SRFBP1, Q8NEF9",4.71
same,PRISMA enrichment of interactor (log2),"UBAC2, Q8NBM4",8.26

# 4 entries from above, bar-delimited.
binder | measurement | setting | value
B1 | PRISMA enrichment of interactor (log2) | RRP36, Q96EU6 | 4.2
same | PRISMA enrichment of interactor (log2) | SLC25A13, Q9UJS0 | 5.1
same | PRISMA enrichment of interactor (log2) | SRP54, P61011 | 4.57
same | PRISMA enrichment of interactor (log2) | TAF8, Q7Z7C8 | 4.13

# Source: the supplement of paper PMC10032668
